Results deposited as PubChem BioAssay AID504774 (Drosophila RNAi Screening Center, 2011).
The screen tested about 23,000 reagents; this is an unselected part of those with a known target gene and a result. 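Values are quantile-normalised luminescence on an arbitrary scale; higher means more cells surviving MMS.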 A plus sign joins genes that one reagent is predicted to hit. Further read-outs or replicates are left out here.

Assay: 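Fly genes whose loss alters survival after alkylation damage to DNA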 (primary screen)
System: Drosophila Kc167 cells
Reagent: long dsRNA against Drosophila genes, about 0.25 µg dsRNA per well
Duration: about 6 days: 3 days knock-down, then 3 days with or without MMS
Conditions: methyl methanesulphonate 0.004% (w/v) for 3 days after knock-down
Detection: 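ATP-dependent luminescence as a measure of live cells in MMS-exposed wells, quantile normalised within each plate, with replicate values also given as a mean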
Direction: mean viability with MMS and viability with MMS: higher = more surviving cells after MMS

target	DRSC id	mean viability with MMS	viability with MMS, replicate 1
CG14689 (GeneID 41283)	DRSC14912	3.53e6	4.00e6
CG11449 (GeneID 40467)	DRSC11662	3.39e6	3.86e6
CG41520 (GeneID 5740294)	DRSC21102	3.66e6	4.09e6
CG41520 (GeneID 5740294)	DRSC21103	3.46e6	3.94e6
CG2930 (GeneID 31341)	DRSC17730	3.55e6	3.97e6
iotaTry (GeneID 36223)	DRSC07634	3.48e6	3.97e6
Gel (GeneID 46008)	DRSC12350	3.51e6	4.01e6
CG10357 (GeneID 38435)	DRSC08155	3.60e6	4.07e6
Eo (GeneID 32423)	DRSC20187	3.49e6	3.95e6
ATPsynCF6L (GeneID 38592)	DRSC08232	3.63e6	4.15e6
AdoR (GeneID 43583)	DRSC16556	3.03e6	3.55e6
CG8173 (GeneID 32753)	DRSC20088	3.55e6	4.09e6
amd (GeneID 35188)	DRSC02608	3.64e6	4.01e6
amd (GeneID 35188)	DRSC03483	3.53e6	4.00e6
CG2854 (GeneID 31219)	DRSC18595	3.43e6	3.83e6
Blimp-1 (GeneID 38638)	DRSC10496	3.56e6	4.03e6
CG34278 (GeneID 5740656)	DRSC13208	3.42e6	3.80e6
wts (GeneID 43651)	DRSC17096	2.76e6	3.47e6
wts (GeneID 43651)	DRSC22975	3.30e6	3.77e6
Ufsp1 (GeneID 246489)	DRSC04958	3.59e6	4.05e6
CG9588 (GeneID 41672)	DRSC16504	3.60e6	4.14e6
tkv + CR14033 + tRNA:Asp-GTC-2-1 + 1 more	DRSC00861	3.32e6	3.71e6
betaCOP (GeneID 32820)	DRSC20312	3.47e6	4.01e6
CG5938 (GeneID 43290)	DRSC15923	3.87e6	4.53e6
CG17707 (GeneID 5740408)	DRSC20650	3.57e6	4.10e6
Hem (GeneID 40462)	DRSC11865	3.53e6	4.02e6
CG9444 (GeneID 41175)	DRSC16493	3.61e6	4.11e6
bnl (GeneID 42356)	DRSC13377	3.65e6	4.14e6
bnl (GeneID 42356)	DRSC16913	3.04e6	3.63e6
bnl (GeneID 42356)	DRSC23212	3.64e6	4.18e6
CG15043 (GeneID 32835)	DRSC19619	3.30e6	3.63e6
Or9a (GeneID 31975)	DRSC18692	3.49e6	3.98e6
Nepl15 (GeneID 42701)	DRSC15630	3.38e6	3.81e6
slmo + CG34179	DRSC03143	3.55e6	4.06e6
sala (GeneID 34570)	DRSC03605	3.47e6	4.02e6
cv-d (GeneID 41921)	DRSC16522	3.47e6	3.91e6
cv-d (GeneID 41921)	DRSC16524	3.42e6	3.89e6
cv-d (GeneID 41921)	DRSC16526	3.72e6	4.19e6
CG5478 (GeneID 41936)	DRSC15814	3.56e6	3.94e6
RhoGEF64C (GeneID 38578)	DRSC08318	3.57e6	4.11e6
RhoGEF64C (GeneID 38578)	DRSC08319	3.36e6	3.78e6
l(1)G0289 (GeneID 31964)	DRSC18215	3.63e6	4.46e6
ND-B12 (GeneID 37466)	DRSC04060	3.57e6	4.06e6
CG15599 (GeneID 32503)	DRSC19668	3.57e6	4.09e6
CG13630 (GeneID 42943)	DRSC14631	3.35e6	3.83e6
CG15580 (GeneID 40743)	DRSC12266	3.57e6	4.10e6
msb1l (GeneID 35254)	DRSC03572	3.61e6	4.10e6
CG30340 (GeneID 246550)	DRSC05167	3.47e6	4.00e6
Kdm4A (GeneID 35744)	DRSC06586	3.70e6	4.21e6
CstF64 (GeneID 42239)	DRSC16616	3.47e6	4.03e6
TM9SF2 (GeneID 35335)	DRSC03197	3.33e6	3.66e6
CG4476 (GeneID 39056)	DRSC10424	3.34e6	3.72e6
ais (GeneID 39979)	DRSC10523	3.59e6	4.11e6
dpr16 (GeneID 40619)	DRSC12217	3.50e6	3.86e6
dpr16 (GeneID 40619)	DRSC12249	2.11e6	4.15e6
CG8036 (GeneID 41027)	DRSC16366	3.52e6	4.01e6
CG12096 (GeneID 32269)	DRSC21692	3.50e6	3.99e6
PK2-R2 (GeneID 41638)	DRSC16448	3.75e6	4.33e6
PPYR1 (GeneID 32453)	DRSC19612	3.55e6	4.13e6
CG32163 (GeneID 317891)	DRSC09442	3.51e6	3.96e6
UQCR-Q (GeneID 39950)	DRSC10886	3.50e6	3.97e6
robo1 (GeneID 37603)	DRSC04712	3.74e6	4.19e6
CG15822 (GeneID 38273)	DRSC08482	3.52e6	4.06e6
CG15822 (GeneID 38273)	DRSC08483	3.60e6	4.12e6
mr (GeneID 45906)	DRSC04332	3.35e6	3.85e6
mr (GeneID 45906)	DRSC22856	3.48e6	4.03e6
VhaAC39-2 (GeneID 42739)	DRSC15609	3.69e6	4.27e6
CG7778 (GeneID 34147)	DRSC03067	3.77e6	4.34e6
